In experiment [1] the target is T1, Zinc‐α2‐glycoprotein (rat (endogenous in primary cortical neurons)) (UniProt Q63678).
T1 sequence: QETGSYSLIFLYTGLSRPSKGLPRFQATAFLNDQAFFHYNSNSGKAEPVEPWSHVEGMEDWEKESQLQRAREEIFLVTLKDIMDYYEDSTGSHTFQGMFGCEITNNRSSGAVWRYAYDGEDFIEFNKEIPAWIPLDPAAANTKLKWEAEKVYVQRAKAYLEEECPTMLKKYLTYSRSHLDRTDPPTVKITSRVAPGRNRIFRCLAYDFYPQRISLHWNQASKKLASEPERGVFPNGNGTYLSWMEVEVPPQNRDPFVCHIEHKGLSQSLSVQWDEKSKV
Kind of experiment: affinity purification with mass spectrometry; immunoprecipitation with anti-ZAG antibody (mouse IgG as control) from extracts of cultured rat cortical neurons, Protein A/G agarose, SDS-PAGE, in-gel digestion, TripleTOF 5600; 3 independent experiments.

Amino acid sequences for entries named in this document (tags omitted).
UniProt P63018: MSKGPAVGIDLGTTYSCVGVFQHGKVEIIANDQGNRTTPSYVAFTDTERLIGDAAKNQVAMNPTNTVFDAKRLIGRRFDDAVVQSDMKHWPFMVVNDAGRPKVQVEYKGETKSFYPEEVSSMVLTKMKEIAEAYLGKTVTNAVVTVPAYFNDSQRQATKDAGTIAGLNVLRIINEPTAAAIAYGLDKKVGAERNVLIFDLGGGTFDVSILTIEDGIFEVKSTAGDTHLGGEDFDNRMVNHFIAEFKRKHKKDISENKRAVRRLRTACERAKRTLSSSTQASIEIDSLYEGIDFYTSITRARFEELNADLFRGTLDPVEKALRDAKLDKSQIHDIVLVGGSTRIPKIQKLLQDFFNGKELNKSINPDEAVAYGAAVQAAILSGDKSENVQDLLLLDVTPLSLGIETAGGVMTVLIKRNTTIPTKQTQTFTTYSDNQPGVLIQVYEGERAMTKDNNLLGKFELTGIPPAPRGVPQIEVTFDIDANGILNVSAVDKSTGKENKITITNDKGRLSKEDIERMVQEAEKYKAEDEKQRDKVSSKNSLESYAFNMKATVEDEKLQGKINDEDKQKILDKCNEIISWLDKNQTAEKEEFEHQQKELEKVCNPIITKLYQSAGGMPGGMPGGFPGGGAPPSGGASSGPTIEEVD

Experiment [2] concerns the target T1, Zinc‐α2‐glycoprotein (rat (endogenous in primary cortical neurons)). The description is as above. This is another data set of the same source.

Where two headings read alike, the source gives them in different places. No constants are given. Whether binding was seen depends on the method and setting. In cells and extracts the contact can be indirect. A yes stands for co-enrichment or nearness to the bait. Other partners may have been found.

Consider 2 molecules from article PMC7299723.

As to “heat shock cognate protein 70 (from UniProt P63018 1-646)”, the binding entry in experiment [1] is reported as “binds”.

B1: four β‐subunits of long‐chain L‐3‐hydroxyacyl‐CoA dehydrogenase (enzyme, UniProt Q60587 35-475)
chain: SAPAVQTKSKKTLAKPNLKNIVVVEGVRIPFLLSGTSYKDLMPHDLARAALSGLLYRTNIPKDVVDYIIFGTVIQEVKTSNVAREAALGAGFSDKTPAHTVTMACISSNQAMTTAVGLIASGQCDVVVAGGVELMSDVPIRHSRNMRKMMLDLNKAKTLAQRLSLLTKFRLNFLSPELPAVAEFSTNETMGHSADRLAAAFAVSRMEQDKYALRSHSLAKKAQDEGHLSDIVPFKVPGKDTVSKDNGIRPSSLEQMAKLKPAFIKPYGTVTAANSSFLTDGASAMLIMSEDRALAMGYKPKAYLRDFIYVSQDPKDQLLLGPTYATPKVLEKAGLTMNDIDAFEFHEAFSGQILANFKAMDSDWFAQNYMGRKTKVGAPPLEKFNIWGGSLSLGHPFGATGCRLVMAAANRLRKDGGQYALVAACAAGGQGHAMIVEAYPK
For B1, the binding result in experiment [2] is recorded as “binds”.
